# Library screening results

Chains of the proteins cited; added tags and fusions are not shown.
UniProt E9BF75, entry or part of it: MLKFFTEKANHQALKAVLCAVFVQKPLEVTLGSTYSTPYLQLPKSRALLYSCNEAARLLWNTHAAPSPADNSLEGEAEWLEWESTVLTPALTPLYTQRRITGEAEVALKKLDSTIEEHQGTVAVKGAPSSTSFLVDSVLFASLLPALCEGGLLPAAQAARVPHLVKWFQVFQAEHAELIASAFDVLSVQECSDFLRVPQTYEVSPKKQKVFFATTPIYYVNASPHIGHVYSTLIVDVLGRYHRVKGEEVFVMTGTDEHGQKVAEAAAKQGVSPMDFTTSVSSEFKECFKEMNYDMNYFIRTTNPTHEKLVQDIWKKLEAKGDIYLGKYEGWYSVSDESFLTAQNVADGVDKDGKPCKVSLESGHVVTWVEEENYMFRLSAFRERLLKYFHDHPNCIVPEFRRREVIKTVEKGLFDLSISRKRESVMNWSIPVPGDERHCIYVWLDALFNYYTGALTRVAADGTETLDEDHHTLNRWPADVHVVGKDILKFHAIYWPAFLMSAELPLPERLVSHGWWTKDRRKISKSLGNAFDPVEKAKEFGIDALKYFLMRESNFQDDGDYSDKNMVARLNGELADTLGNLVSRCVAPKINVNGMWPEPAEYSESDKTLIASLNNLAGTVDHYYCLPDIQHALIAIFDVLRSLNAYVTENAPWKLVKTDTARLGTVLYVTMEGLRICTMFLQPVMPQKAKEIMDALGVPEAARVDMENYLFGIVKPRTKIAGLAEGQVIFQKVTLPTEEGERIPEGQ

Data taken from ChEMBL document CHEMBL3988442, “University of Dundee, Small-Polar-MMV Screening Library” (2021).

All values are in %.
The record does not define 0% and 100%; most values in the screen are far below 50% and negative numbers occur (in some assays of this library far below -100).
The compounds are a random part of those screened.

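Primary screen of methionyl-tRNA synthetase; the read-out is not stated. Target: Methionyl-tRNA synthetase (putative), Leishmania donovani (UniProt E9BF75). The test concentration is not given. Values are per cent inhibition. Size under these conditions: about 68,000 compounds, about 24 of them at 50% or above in at least one test.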

{"smiles": "CC(C)Oc1ccc(CNC(=O)NCc2ccncc2)cc1F", "Inhibition": 13.65}
{"smiles": "Cc1cc(C2CCCN2CCC(=O)N2CCc3sccc3C2)no1", "stereo": "centres undefined", "Inhibition": 27.3}
{"smiles": "O=C(Nc1ccccc1Oc1cccc(F)c1)NC1CCS(=O)(=O)C1", "stereo": "centres undefined", "Inhibition": 2.174}
{"smiles": "CCOc1ccccc1C(CC(=O)Nc1ccccn1)NC(C)=O", "stereo": "centres undefined", "Inhibition": 2.186}
{"smiles": "Cc1cccc(NC(=O)CCC(=O)NCC(=O)c2ccccc2F)c1", "Inhibition": 0}
{"smiles": "CN(CCc1ccccn1)C(=O)Nc1cccnc1-n1cccn1", "Inhibition": 8.757}
{"smiles": "NC(=O)CN1C(=O)CO[C@H]2CN(Cc3ccccc3)C[C@H]21", "Inhibition": 12.78}
{"smiles": "O=C(c1cc[nH]c(=O)c1)N1CCn2c(nnc2-c2ccccc2)C1", "Inhibition": 9.574}
{"smiles": "CCC1CCCCN1C(=O)c1ccnc(N(C)C)c1", "stereo": "centres undefined", "Inhibition": 9.945}
{"smiles": "Cc1ccc(N2CCCC(NCC(=O)NC(C3CC3)C3CC3)C2)nn1", "stereo": "centres undefined", "Inhibition": 27.92}
{"smiles": "CCn1ccnc1CN1CCN(CC(O)Cn2cccn2)CC1", "stereo": "centres undefined", "Inhibition": 3.067}
{"smiles": "CCn1cc(S(=O)(=O)NC(CO)Cc2c[nH]c3ccccc23)cn1", "stereo": "centres undefined", "Inhibition": 11.7}
{"smiles": "CC(C)c1ocnc1C(=O)N1CCC(=O)Nc2cccnc21", "Inhibition": 17.26}
{"smiles": "COc1c(C)cnc(CN2CCCC(c3noc(C4CC4)n3)C2)c1C", "stereo": "centres undefined", "Inhibition": 5.866}
{"smiles": "O=C(NCCNc1ncccn1)Nc1cc(C(F)(F)F)c[nH]c1=O", "Inhibition": 13.65}
{"smiles": "COCCOc1ccc(NC(=O)N2CCCC2c2ccncc2)cn1", "stereo": "centres undefined", "Inhibition": 3.472}
{"smiles": "NC(=O)C1CCN(Cn2nc(-c3ccc(F)cc3)oc2=O)CC1", "Inhibition": 3.937}
{"smiles": "Cc1ccccc1-n1cc(CN(C)C(=O)CC2C(=O)NCCN2C)cn1", "stereo": "centres undefined", "Inhibition": 12.93}
{"smiles": "COc1ccc(OC)c(C(O)CN2CCC(N3CCC(C)CC3)CC2)c1", "stereo": "centres undefined", "Inhibition": 5.788}
{"smiles": "O=C(c1ccccc1)N1CC[C@H]2C[C@@H](c3nnc(C4CC4)o3)O[C@@H]2C1", "Inhibition": 4.134}
{"smiles": "CCn1nc2ccc(S(=O)(=O)N3CCSCC3)cn2c1=O", "Inhibition": 5.898}
{"smiles": "CN1C(=O)C(C)(C)COc2ccc(NS(=O)(=O)Cc3ccccc3)cc21", "Inhibition": 6.761}
{"smiles": "CC(CO)(NC(=O)NCc1ccc(Br)s1)C1CC1", "stereo": "centres undefined", "Inhibition": 7.914}
{"smiles": "Cc1cc(C)nc(CCNC(=O)[C@H]2CNC[C@@H](C(=O)N3CCCC3)C2)n1", "Inhibition": 6.5}
{"smiles": "Cc1noc(C)c1CNc1cc(N2CCCC2CO)ncn1", "stereo": "centres undefined", "Inhibition": 16.67}
{"smiles": "O=S(=O)(C1CC1)N1C[C@@H]2COC[C@]2(COc2ccccn2)C1", "Inhibition": 19.31}
{"smiles": "CC(C)OCc1cccc(NC(=O)N2CCCC(CCC(N)=O)C2)c1", "stereo": "centres undefined", "Inhibition": 14.25}
{"smiles": "Cc1ccc(N2CC[C@H]3O[C@H](C(=O)N4CCCCO4)CC[C@H]32)nn1", "Inhibition": 12.02}
{"smiles": "Cc1ccc(S(N)(=O)=O)cc1C(=O)NC1CCCC1", "Inhibition": 11.53}
{"smiles": "CNC(=O)Cn1c(CO)cnc1SCc1ccccc1Cl", "Inhibition": 4.077}
{"smiles": "Cc1cnn(CCNCc2nc(-c3ccccn3)no2)c1", "Inhibition": 23.46}
{"smiles": "Cc1cnn(CC2CCCN2C(=O)Cc2ccc3c(c2)CCO3)c1", "stereo": "centres undefined", "Inhibition": 14.72}
{"smiles": "O=C(Cc1cccs1)Nc1cnn(C2CCOCC2)c1", "Inhibition": 4.789}
{"smiles": "Cc1nnc(CN(C)CC(=O)N2CCCC(C)CC2)n1C", "stereo": "centres undefined", "Inhibition": 12.99}
{"smiles": "CCc1nc(C)sc1CN1CC[C@@](O)(C2CC2)[C@H](C)C1", "Inhibition": 17.12}
{"smiles": "COc1ccccc1OCCNC(=O)NCc1nc(C)no1", "Inhibition": 15.07}
{"smiles": "Fc1ccccc1Sc1ccccc1CNC1=NCCN1", "Inhibition": 15.26}
{"smiles": "Cc1nnc([C@@H]2C[C@H]3CN(C(=O)C4CC4)C[C@H]3O2)[nH]1", "Inhibition": 14.13}
{"smiles": "CCc1cccc(CC(=O)NC2CCN(C(=O)NC(C)(C)C)CC2)c1", "Inhibition": 8.635}
{"smiles": "Cc1cc(C)n(CC2CCCCN2C(=O)CCc2ccncc2)n1", "stereo": "centres undefined", "Inhibition": 1.639}
{"smiles": "Cc1occc1C(=O)N1C[C@@H](OCc2cccnc2)[C@H]2OCCC[C@@H]21", "Inhibition": 18.73}
{"smiles": "CN1C(=O)C(c2cccnc2)CC12CCN(CCO)CC2", "stereo": "centres undefined", "Inhibition": 15.85}
{"smiles": "CCOCc1cccc(S(=O)(=O)Nc2ccn(CC)n2)c1", "Inhibition": 31.02}
{"smiles": "OCCN1CCCCC1C1OCCO1", "stereo": "centres undefined", "Inhibition": 9.034}
{"smiles": "O=C(O)Cc1nc2nccc(-c3ccc(F)cc3)n2n1", "Inhibition": 5.135}
{"smiles": "Fc1ccccc1Oc1nccnc1C1CCCN(C2CCOCC2)C1", "stereo": "centres undefined", "Inhibition": 9.574}
{"smiles": "O=C1N[C@@H]2CCN(C(=O)C3CC3)[C@@H]2C(=O)N1c1ccccc1", "Inhibition": 9.89}
{"smiles": "Cn1ccc(C(=O)N2C[C@@H]3CN(CC4CC4)CCO[C@@H]3C2)n1", "Inhibition": 8.901}
{"smiles": "Cc1ccc(NC(=O)N(CCO)CCO)c(OCc2ccccc2)c1", "Inhibition": 7.246}
{"smiles": "Cc1nc2cc(C(=O)N3C[C@@H](NS(C)(=O)=O)[C@H](C(C)C)C3)ccc2[nH]1", "Inhibition": 15.65}

4 of the entries, repeated:

- Cc1cccc(NC(=O)CCC(=O)NCC(=O)c2ccccc2F)c1 : 0%
- COc1ccccc1OCCNC(=O)NCc1nc(C)no1 : 15.07%
- Cc1ccc(NC(=O)N(CCO)CCO)c(OCc2ccccc2)c1 : 7.246%
- Cc1ccc(N2CC[C@H]3O[C@H](C(=O)N4CCCCO4)CC[C@H]32)nn1 : 12.02%